The supplement of paper PMC10849652
The list shows a part of the results.

By UniProt entry, the sequences of proteins in these tests, tags left out. Where a name states a change or a piece, a line headed by the entry shows the natural chain unless it says otherwise.
UniProt P04350, whole entry, looked up: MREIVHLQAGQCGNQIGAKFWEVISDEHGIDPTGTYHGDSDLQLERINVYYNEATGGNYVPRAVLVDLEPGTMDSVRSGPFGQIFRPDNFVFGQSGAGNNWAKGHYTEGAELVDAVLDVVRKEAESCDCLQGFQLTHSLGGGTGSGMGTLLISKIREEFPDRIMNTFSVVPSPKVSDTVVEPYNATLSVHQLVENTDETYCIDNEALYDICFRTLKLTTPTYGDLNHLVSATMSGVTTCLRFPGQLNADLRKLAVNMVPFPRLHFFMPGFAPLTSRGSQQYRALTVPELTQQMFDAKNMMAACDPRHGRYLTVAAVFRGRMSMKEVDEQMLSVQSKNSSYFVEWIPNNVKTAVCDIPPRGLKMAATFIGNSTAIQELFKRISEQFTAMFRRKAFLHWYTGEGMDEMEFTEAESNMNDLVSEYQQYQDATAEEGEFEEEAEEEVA
UniProt Q9BVA1, whole entry, looked up: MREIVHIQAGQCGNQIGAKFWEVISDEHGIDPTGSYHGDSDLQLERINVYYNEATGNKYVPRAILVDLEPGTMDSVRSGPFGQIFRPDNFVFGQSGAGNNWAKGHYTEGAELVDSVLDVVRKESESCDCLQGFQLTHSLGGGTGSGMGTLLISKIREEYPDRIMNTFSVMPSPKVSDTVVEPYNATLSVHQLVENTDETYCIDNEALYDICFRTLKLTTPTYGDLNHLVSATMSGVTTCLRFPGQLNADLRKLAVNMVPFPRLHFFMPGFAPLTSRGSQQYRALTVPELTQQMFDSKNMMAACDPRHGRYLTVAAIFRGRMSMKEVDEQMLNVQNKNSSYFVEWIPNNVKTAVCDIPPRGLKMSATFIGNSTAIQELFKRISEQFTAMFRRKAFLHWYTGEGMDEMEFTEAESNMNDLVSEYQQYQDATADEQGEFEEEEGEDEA
UniProt P63279, whole entry, looked up: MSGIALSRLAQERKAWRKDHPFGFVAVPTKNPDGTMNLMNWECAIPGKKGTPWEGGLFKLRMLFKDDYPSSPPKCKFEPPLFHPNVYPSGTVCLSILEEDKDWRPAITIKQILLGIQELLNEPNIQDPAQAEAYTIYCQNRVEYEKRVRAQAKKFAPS
UniProt A6NNZ2, whole entry, looked up: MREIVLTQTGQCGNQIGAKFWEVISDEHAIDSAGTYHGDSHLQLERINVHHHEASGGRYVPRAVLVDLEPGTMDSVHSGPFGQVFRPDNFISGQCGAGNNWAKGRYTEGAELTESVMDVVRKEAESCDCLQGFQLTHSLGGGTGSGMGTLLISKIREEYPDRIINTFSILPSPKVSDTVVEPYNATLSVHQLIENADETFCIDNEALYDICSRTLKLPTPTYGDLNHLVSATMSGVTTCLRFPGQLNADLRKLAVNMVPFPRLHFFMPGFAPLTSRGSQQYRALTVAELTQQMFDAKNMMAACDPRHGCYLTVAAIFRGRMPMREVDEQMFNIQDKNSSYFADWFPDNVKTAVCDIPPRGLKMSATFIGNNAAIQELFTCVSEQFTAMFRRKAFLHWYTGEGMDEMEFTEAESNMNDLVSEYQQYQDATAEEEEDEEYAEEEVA
UniProt Q96FV3: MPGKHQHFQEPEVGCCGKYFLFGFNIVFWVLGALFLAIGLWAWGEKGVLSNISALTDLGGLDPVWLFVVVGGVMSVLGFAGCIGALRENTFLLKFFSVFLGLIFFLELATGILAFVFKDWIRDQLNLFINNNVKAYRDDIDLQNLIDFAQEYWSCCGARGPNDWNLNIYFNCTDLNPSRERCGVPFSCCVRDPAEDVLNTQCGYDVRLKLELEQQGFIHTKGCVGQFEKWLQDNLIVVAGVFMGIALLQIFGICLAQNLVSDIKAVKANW
UniProt Q06418: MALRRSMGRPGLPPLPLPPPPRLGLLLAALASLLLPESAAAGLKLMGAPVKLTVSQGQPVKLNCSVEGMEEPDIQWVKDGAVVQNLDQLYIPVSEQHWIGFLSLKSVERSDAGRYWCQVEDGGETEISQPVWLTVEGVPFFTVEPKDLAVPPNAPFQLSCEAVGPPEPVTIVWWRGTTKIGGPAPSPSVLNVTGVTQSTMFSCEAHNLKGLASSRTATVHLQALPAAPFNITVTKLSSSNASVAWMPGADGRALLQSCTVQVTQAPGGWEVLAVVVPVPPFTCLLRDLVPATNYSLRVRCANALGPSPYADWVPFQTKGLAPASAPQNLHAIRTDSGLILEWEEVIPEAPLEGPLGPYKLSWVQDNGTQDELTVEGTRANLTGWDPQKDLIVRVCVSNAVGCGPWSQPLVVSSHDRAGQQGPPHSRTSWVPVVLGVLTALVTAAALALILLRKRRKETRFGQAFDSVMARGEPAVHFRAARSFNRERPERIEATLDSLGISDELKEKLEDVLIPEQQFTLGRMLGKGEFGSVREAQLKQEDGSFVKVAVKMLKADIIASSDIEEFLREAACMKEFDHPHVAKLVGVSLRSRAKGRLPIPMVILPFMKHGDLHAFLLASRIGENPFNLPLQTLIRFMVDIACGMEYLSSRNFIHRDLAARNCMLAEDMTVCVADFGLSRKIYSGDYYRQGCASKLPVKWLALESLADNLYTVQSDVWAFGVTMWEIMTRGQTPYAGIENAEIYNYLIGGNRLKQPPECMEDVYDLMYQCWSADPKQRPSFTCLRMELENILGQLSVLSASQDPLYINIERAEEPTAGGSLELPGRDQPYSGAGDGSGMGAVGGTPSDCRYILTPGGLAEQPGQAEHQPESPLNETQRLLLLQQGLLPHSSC
UniProt Q96AE7: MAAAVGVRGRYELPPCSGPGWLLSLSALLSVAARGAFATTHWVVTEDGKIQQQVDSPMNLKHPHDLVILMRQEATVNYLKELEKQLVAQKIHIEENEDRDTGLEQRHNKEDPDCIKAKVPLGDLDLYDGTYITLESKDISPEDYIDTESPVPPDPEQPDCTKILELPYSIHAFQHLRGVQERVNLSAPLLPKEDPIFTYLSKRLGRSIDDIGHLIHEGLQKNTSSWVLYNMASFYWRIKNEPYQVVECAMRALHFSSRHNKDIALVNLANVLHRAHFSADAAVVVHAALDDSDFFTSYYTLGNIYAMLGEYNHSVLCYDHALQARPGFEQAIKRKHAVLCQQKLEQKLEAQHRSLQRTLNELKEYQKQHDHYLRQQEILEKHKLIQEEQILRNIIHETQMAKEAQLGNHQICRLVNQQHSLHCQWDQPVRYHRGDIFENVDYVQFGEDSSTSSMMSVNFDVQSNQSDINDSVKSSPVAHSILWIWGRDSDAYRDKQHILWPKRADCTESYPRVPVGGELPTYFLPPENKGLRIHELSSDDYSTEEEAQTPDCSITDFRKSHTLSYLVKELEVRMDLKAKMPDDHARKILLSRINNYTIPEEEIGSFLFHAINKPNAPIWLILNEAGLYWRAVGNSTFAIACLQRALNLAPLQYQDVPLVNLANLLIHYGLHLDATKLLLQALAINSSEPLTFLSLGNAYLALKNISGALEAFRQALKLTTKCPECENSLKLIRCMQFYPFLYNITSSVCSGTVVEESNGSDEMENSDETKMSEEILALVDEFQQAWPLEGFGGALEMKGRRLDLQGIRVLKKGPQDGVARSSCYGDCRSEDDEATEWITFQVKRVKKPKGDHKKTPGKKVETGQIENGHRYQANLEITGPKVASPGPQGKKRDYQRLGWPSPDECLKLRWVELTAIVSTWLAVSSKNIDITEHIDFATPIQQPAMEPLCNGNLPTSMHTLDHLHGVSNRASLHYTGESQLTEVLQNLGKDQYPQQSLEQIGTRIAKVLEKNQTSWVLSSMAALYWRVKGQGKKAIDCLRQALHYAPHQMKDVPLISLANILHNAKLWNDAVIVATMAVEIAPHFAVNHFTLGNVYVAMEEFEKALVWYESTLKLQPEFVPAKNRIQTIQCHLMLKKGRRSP
UniProt Q7Z3V4: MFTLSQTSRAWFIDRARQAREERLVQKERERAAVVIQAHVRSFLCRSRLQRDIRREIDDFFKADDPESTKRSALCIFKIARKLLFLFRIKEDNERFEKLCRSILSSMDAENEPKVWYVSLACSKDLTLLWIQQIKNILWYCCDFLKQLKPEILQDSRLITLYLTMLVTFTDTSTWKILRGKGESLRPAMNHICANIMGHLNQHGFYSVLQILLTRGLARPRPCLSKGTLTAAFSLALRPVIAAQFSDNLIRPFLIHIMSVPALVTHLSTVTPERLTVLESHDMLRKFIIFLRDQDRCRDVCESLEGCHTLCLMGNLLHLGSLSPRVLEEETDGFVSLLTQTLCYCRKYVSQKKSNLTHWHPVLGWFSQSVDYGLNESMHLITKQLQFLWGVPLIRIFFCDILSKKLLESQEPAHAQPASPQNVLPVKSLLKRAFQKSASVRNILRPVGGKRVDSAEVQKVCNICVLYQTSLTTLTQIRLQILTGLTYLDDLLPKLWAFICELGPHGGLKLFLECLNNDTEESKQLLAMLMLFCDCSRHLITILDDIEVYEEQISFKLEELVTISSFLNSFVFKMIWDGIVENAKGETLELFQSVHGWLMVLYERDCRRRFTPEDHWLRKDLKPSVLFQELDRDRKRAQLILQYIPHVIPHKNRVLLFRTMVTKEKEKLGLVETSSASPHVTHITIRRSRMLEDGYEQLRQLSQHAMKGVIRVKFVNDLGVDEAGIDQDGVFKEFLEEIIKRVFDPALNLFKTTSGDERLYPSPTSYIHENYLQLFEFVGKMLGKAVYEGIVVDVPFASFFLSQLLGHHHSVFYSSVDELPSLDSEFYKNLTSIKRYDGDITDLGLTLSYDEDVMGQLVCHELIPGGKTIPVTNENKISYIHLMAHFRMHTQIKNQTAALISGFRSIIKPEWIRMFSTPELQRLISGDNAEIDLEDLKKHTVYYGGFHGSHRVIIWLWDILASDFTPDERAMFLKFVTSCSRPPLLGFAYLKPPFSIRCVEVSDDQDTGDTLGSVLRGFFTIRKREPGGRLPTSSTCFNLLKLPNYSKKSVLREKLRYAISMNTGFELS
UniProt Q9UJT1: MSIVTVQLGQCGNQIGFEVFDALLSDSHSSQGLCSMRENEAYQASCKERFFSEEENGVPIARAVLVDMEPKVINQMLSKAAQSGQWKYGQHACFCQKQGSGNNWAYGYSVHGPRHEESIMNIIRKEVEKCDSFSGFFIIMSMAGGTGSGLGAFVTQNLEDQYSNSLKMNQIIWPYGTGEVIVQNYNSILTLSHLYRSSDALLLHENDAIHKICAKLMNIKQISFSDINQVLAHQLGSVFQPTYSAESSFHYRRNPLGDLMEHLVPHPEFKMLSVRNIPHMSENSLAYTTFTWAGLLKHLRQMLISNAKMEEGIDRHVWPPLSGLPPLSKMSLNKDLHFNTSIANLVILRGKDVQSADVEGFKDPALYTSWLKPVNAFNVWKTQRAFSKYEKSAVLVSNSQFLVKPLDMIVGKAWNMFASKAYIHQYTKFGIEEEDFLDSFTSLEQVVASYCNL
UniProt P33981: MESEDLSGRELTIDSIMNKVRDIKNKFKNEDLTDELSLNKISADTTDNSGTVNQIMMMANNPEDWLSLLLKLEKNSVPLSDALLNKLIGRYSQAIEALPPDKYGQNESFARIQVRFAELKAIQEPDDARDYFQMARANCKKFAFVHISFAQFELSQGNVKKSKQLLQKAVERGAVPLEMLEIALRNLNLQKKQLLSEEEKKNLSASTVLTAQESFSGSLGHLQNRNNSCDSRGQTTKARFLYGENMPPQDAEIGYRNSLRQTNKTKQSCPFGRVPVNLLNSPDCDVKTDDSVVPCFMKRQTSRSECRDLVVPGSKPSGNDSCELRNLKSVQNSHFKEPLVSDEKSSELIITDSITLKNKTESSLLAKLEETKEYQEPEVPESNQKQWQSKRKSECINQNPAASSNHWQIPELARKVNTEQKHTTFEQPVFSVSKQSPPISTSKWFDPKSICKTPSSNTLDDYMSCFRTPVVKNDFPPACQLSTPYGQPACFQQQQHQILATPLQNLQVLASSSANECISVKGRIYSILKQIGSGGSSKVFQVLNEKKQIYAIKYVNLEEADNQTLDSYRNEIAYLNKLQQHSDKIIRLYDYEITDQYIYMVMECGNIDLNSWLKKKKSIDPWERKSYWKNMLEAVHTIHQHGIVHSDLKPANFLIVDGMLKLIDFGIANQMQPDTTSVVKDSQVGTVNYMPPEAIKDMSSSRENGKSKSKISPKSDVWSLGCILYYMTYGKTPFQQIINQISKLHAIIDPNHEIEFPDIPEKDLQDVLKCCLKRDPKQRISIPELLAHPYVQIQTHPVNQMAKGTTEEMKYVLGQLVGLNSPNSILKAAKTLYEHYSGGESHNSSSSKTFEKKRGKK
UniProt Q3B726, whole entry, looked up: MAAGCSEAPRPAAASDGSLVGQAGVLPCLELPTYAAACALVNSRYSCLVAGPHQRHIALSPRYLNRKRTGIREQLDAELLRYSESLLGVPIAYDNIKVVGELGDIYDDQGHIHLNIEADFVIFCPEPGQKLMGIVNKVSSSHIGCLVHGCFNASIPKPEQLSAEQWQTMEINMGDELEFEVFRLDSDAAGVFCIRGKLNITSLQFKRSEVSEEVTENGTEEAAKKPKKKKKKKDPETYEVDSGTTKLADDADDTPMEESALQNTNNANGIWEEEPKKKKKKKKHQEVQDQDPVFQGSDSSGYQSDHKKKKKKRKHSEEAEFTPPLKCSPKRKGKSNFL

Legend:
Assay in all cases: log2 fold change, soluble protein after heating vs DMSO (PISA); higher = thermal stabilisation; K562 cells, 10 uM, 30 min; active = over 0.2 and 3.5 SD of the protein, either way, in both replicates (recomputed)
erlotinib = compound: C#Cc1cccc(Nc2ncnc3cc(OCCOC)c(OCCOC)cc23)c1 [erlotinib]
Outline: (§1)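 K562 cells at 2×10^6 cells/mL were given 10 μM compound for 30 min. Aliquots then went through 3 min of heating across 48°C-58°C, were pooled, and were extracted in PBS with 0.5% NP-40 at 4°C, and the supernatant after 21,000xg for 90 min was quantified by TMTpro 16plex LC-MS/MS with channel sums equalised. Thermal stability relative to control samples, from duplicates, is given as log2 fold change.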

[1] = compound: C/C(=N\NC(=O)C1=CC(=CC=C1)S(=O)(=O)N2CCOCC2)/C3=C(C=CC(=C3)Cl)O
Outline: as §1

[2] = compound: C1=CC(=C(C=C1Cl)C2=NC3=NC=CN=C3C(=N2)NC4=CC=NC=C4)F
Outline: as §1

[3] = compound: C1=CC(=CC=C1C2=NC3=C(N2)C=C(C=C3)C(=O)N)OC4=CC=C(C=C4)Cl
Outline: as §1

[4] = compound: C1=CC2=C(C=CC(=C2)/C=C\3/C(=O)NC(=NCC4=CC=CS4)S3)N=C1
Outline: as §1

[5] = compound: C1=CC2=NC=CN=C2C=C1/C=C/3\C(=O)NC(=O)S3
Outline: as §1

[6] = compound: C1=CC=C(C=C1)C2=NC(=C(N2)C3=CC=NC=C3)C4=CC(=C(C=C4)Cl)O
Outline: as §1

[7] = compound: C1=CC=C2C(=C1)C3=NNC4=CC=CC(=C43)C2=O
Outline: as §1

[8] = compound: C1CCN(C1)C(=O)NC2=CC=CC(=C2)NC3=NC=C(C(=N3)NCCC4=CN=CN4)Br
Outline: as §1

[9] = compound: C1CN(CCC1(CC2=CC=C(C=C2)Cl)N)C3=NC=NC4=C3C=CN4
Outline: as §1

Measured: log2 fold change

TWSG1 (UniProt Q9GZX9)
inactive: erlotinib 0.135 | [1] -0.024 | [2] 0.067 | [3] 0.017 | [4] 0.007 | [5] 0 | [6] -0.056 | [7] -0.083 | [8] 0.007 | [9] 0.044

TST (UniProt Q16762)
inactive: erlotinib 0.188 | [1] 0.106 | [2] -0.312 | [3] -0.079 | [4] 0.218 | [7] -0.241

TUBB4A (UniProt P04350)
inactive: erlotinib -0.034 | [1] 0.062 | [2] 0.418 | [3] 0.141 | [4] 0.027 | [5] 0.153 | [6] 0.039 | [7] 0.039 | [8] 0.029 | [9] 0.295

TTC13 (UniProt Q8NBP0)
inactive: erlotinib -0.127 | [1] -0.025 | [3] 0.08 | [4] -0.162 | [6] -0.251 | [7] 0.077 | [8] -0.018 | [9] 0.085

TUBB2B (UniProt Q9BVA1)
inactive: erlotinib 0.034 | [1] -0.077 | [3] -0.081 | [4] -0.006 | [5] 0.037 | [6] -0.041 | [7] -0.026 | [8] -0.067 | [9] 0.127

TXNDC16 (UniProt Q9P2K2)
inactive: erlotinib -0.055 | [1] -0.086 | [2] 0.013 | [3] -0.031 | [4] 0.149 | [6] -0.024 | [7] 0.002 | [8] 0.155 | [9] -0.058

TXNL4B (UniProt Q9NX01)
inactive: erlotinib 0.018 | [1] 0.007 | [3] -0.001 | [4] 0.088 | [5] 0.221 | [6] 0.008 | [7] 0.041 | [8] -0.005 | [9] -0.016

UBE2I (UniProt P63279)
inactive: erlotinib -0.031 | [1] 0.08 | [2] 0.083 | [3] -0.026 | [4] -0.02 | [5] 0.005 | [6] 0.016 | [7] -0.003 | [8] 0.02 | [9] 0.007

TUBB8B (UniProt A6NNZ2)
inactive: erlotinib 0.062 | [2] 0.098 | [3] 0.141 | [5] 0.014 | [6] 0.028 | [8] -0.068 | [9] 0.059

UBAP2L (UniProt F8W726)
inactive: erlotinib 0.019 | [3] 0.004 | [5] -0.019 | [8] 0 | [9] 0.124

TTC14 (UniProt Q96N46)
inactive: erlotinib 0.267 | [3] 0.122 | [5] -0.056 | [8] 0.08 | [9] -0.047

TSKU (UniProt Q8WUA8)
inactive: erlotinib -0.092 | [3] 0.012 | [8] 0.014 | [9] -0.241

TTC12 isoform 2 (UniProt Q9H892)
inactive: erlotinib -0.282 | [2] -0.444 | [3] -0.049 | [5] -0.002 | [6] -0.259 | [8] 0.058 | [9] -0.036

TUT1 (UniProt Q9H6E5)
inactive: [5] 0.062

TSPAN13 (UniProt O95857)
inactive: erlotinib 0.017 | [2] -0.058 | [3] 0.061 | [5] 0.075 | [6] -0.02 | [8] 0.065 | [9] 0.143

TUSC2 (UniProt O75896)
inactive: erlotinib 0.043 | [2] 0.231 | [3] 0.027 | [5] 0.034

TUBA4A (UniProt C9JJQ8)
inactive: [5] 0.004 | [8] 0.142 | [9] -0.036

UBE2L5, A0A1B0GUS4
inactive: erlotinib -0.122 | [3] -0.283 | [8] 0.515 | [9] 0.159

TTC26
inactive: [5] 0.001 | [6] -0.005 | [8] 0.09 | [9] -0.062

TTR (UniProt P02766)
inactive: erlotinib 0.134 | [1] 0.007 | [3] -0.455 | [4] 0.644 | [7] -0.401

TSPAN17 isoform 4 (UniProt Q96FV3)
inactive: erlotinib -0.156 | [2] 0.087 | [3] -0.011

TSPAN4 (UniProt O14817)
inactive: erlotinib -0.088 | [3] 0.059 | [5] -0.212 | [6] 0.004 | [8] -0.083 | [9] 0.14

TYRO3 (UniProt Q06418)
inactive: [2] 0.033 | [5] 0.155

TUBGCP5 (UniProt Q96RT8)
inactive: erlotinib 0.077 | [2] -0.004 | [3] 0.014 | [5] 0.04 | [8] -0.003 | [9] -0.04

TUBB8 (UniProt Q3ZCM7)
inactive: erlotinib -0.036 | [3] 0.16 | [6] -0.041

TUT4 (UniProt Q5TAX3)
inactive: erlotinib 0.077 | [2] -0.231 | [3] 0.005 | [5] -0.011 | [6] 0.08 | [8] -0.015 | [9] -0.129

TTC37 (UniProt Q6PGP7)
inactive: [1] -0.09 | [2] -0.567 | [4] 0.159 | [5] -0.094 | [6] -0.173 | [7] -0.117

TXNDC2 (UniProt Q86VQ3)
inactive: [1] -0.006 | [4] -0.079 | [5] 0.023 | [6] 0.061 | [7] -0.468

TUBGCP6 (UniProt Q96RT7)
inactive: [1] -0.64 | [4] 0.057 | [7] 0.079

TTC5 (UniProt Q8N0Z6)
inactive: [6] -0.05

TXNRD1 isoform 7 (UniProt Q16881)
inactive: erlotinib 0.107 | [2] 0.1 | [3] -0.193 | [5] 0.199

TTC17 isoform 2 (UniProt Q96AE7)
inactive: erlotinib 0.103 | [3] 0.081

UBE3B (UniProt Q7Z3V4)
inactive: [1] 0.018 | [2] 0.08 | [4] 0.121 | [5] 0.135 | [6] 0.064 | [7] -0.043 | [8] 0.395 | [9] 0.16

TUBD1 (UniProt Q9UJT1)
inactive: [1] 0.057 | [4] 0.266 | [6] 0.104 | [7] -0.158

TTC21B (UniProt Q7Z4L5)
inactive: [8] -0.016 | [9] 0.234

TVP23C (UniProt Q96ET8)
inactive: erlotinib -0.025 | [1] 0.053 | [3] -0.021 | [4] 0.062 | [7] -0.098 | [8] 0.066 | [9] -0.031

TTK (UniProt P33981)
inactive: [2] -0.34 | [6] -0.171

TYK2 (UniProt P29597)
inactive: [5] 0.107

2 consecutive entries from above:
TTK (UniProt P33981)
inactive: [2] -0.34 | [6] -0.171

TYK2 (UniProt P29597)
inactive: [5] 0.107

More entries follow.

UBE2K (UniProt D6RDM7)
inactive: [2] -0.035 | [5] -0.225 | [6] -0.062 | [8] 0.189 | [9] -0.013

TWISTNB (UniProt Q3B726)
inactive: erlotinib -0.004 | [2] -0.517 | [3] -0.01 | [5] -0.459 | [8] -0.315 | [9] -0.067

TUT7 (UniProt Q5VYS8)
inactive: [1] -0.021 | [2] -0.641 | [4] 0.145 | [7] 0.01 | [8] -0.001 | [9] -0.174
